# Data as given in patent US12698463B2, “Spatially controlled fabrication of multi-spheroid tissues using magnetic bioprinting” (The Board of Trustees of the Leland Stanford Junior …, priority 2022, dated 2026).
# At least one structure is not confirmed: it was looked up by name or label, or the drawing left a doubt.
# Assays:
# [1] = test system: DIPG; conditions: literature refs 34, 36; cited from earlier work
# [2] = test system: DIPG organoids; experiment: Cleaved caspase-3 immunofluorescence in DIPG organoids after panobinostat treatment; assay type: cell-based, human; conditions: 200 nM panobinostat
# [3] = test system: DIPG organoids; experiment: H3K27M immunofluorescence in DIPG organoids after panobinostat treatment; assay type: cell-based, human; conditions: 200 nM panobinostat
smiles,measurement,setting,value
Cc1[nH]c2ccccc2c1CCNCc1ccc(/C=C/C(=O)NO)cc1 [panobinostat],DIPG viability in vitro,[1],decrease DIPG viability
same,cleaved caspase-3: pontine versus frontal lobe DIPG organoids,"[2]; DIPG organoids in isolation, p=0.996",No statistically significant differences
same,cleaved caspase-3 expression in DIPG organoids compared to untreated controls,[2]; all DIPG organoids,higher levels of cleaved caspase-3
same,cleaved caspase-3: pontine compared to frontal lobe DIPG organoids,"[2]; fused to dorsal or ventral neural organoids, ventral p<0.0001, dorsal p<0.01",significantly higher levels of cleaved caspase-3
same,H3K27M expression within DIPG organoids,[3]; isolated DIPG organoids,decreased
same,H3K27M expression as a function of metastatic profile (pontine versus frontal lobe),"[3]; isolated DIPG organoids, p=0.983",did not exhibit significant differences
same,H3K27M expression: assembled pontine versus assembled frontal lobe DIPG organoids,"[3]; ventral fusion p<0.05, dorsal fusion p<0.01",significantly lower
